For test [1], the target named is T1, full-length S. cerevisiae Rad54 (GST-tagged) (S. cerevisiae), P32863.
T1 chain: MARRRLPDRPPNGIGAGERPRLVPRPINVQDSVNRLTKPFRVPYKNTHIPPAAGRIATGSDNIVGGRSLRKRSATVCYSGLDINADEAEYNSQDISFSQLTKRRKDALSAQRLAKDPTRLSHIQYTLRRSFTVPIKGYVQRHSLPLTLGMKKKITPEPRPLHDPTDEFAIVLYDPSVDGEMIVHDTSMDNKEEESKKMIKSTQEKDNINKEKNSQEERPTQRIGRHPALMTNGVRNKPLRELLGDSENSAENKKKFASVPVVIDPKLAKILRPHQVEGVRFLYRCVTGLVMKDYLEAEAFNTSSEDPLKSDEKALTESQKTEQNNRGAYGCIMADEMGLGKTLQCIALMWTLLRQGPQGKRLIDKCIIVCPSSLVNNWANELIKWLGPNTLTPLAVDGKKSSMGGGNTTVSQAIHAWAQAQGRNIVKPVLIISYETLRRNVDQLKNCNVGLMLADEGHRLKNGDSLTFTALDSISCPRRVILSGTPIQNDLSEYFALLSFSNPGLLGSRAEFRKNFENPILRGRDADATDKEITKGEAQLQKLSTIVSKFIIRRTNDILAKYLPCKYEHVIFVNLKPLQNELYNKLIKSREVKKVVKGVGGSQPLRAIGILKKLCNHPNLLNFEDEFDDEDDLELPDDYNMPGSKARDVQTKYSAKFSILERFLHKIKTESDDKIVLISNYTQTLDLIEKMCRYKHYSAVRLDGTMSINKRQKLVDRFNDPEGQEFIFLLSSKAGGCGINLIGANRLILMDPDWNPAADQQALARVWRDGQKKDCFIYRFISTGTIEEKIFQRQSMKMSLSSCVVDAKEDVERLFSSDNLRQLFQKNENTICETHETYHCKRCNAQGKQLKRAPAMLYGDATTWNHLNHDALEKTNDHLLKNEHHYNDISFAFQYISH
Put plainly: SEC; Sephacryl S-300 gel filtration in 30 mM Tris-HCl pH 7.5, 500 mM NaCl, 1 mM EDTA, 10% glycerol, 10 mM BME, during purification; both purified. Particulars: remark: other sources report otherwise.

Chains of the proteins cited; added tags and fusions are not shown. Residues count along the entry.
UniProt P25454, residues 80-400: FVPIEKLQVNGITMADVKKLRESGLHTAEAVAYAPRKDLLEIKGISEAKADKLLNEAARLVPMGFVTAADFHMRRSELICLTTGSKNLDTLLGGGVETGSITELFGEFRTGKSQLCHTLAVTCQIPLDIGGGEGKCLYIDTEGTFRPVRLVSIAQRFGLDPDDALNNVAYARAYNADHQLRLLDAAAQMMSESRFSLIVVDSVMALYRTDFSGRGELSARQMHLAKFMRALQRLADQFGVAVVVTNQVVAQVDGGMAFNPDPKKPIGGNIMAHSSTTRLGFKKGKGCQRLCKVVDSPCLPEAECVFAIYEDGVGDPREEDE

For test [2], the target named is S. cerevisiae Rad51 (S. cerevisiae) (UniProt P25454). Put plainly: cryo-EM structure; Rad51 (5 uM) pre-assembled on 96-mer ssDNA (0.25 uM) in HR buffer (30 mM Tris pH 7.5, 20 mM MgCl2, 50 mM KCl, 1 mM DTT, 2 mM ATP), 30 C; 8-fold molar excess (40 uM) of Rad54 peptide or Hed1 peptide added for 10 min; both purified.

Results are given in words; binding and its absence hold for the method and conditions named. Some entries that bind do so weakly or less than the wild type. For part of these data: Tags and fused reporters may be left off the sequences shown.

B1: full-length S. cerevisiae Rad54 (GST-tagged), P32863 1-898 (enzyme)
chain: MARRRLPDRPPNGIGAGERPRLVPRPINVQDSVNRLTKPFRVPYKNTHIPPAAGRIATGSDNIVGGRSLRKRSATVCYSGLDINADEAEYNSQDISFSQLTKRRKDALSAQRLAKDPTRLSHIQYTLRRSFTVPIKGYVQRHSLPLTLGMKKKITPEPRPLHDPTDEFAIVLYDPSVDGEMIVHDTSMDNKEEESKKMIKSTQEKDNINKEKNSQEERPTQRIGRHPALMTNGVRNKPLRELLGDSENSAENKKKFASVPVVIDPKLAKILRPHQVEGVRFLYRCVTGLVMKDYLEAEAFNTSSEDPLKSDEKALTESQKTEQNNRGAYGCIMADEMGLGKTLQCIALMWTLLRQGPQGKRLIDKCIIVCPSSLVNNWANELIKWLGPNTLTPLAVDGKKSSMGGGNTTVSQAIHAWAQAQGRNIVKPVLIISYETLRRNVDQLKNCNVGLMLADEGHRLKNGDSLTFTALDSISCPRRVILSGTPIQNDLSEYFALLSFSNPGLLGSRAEFRKNFENPILRGRDADATDKEITKGEAQLQKLSTIVSKFIIRRTNDILAKYLPCKYEHVIFVNLKPLQNELYNKLIKSREVKKVVKGVGGSQPLRAIGILKKLCNHPNLLNFEDEFDDEDDLELPDDYNMPGSKARDVQTKYSAKFSILERFLHKIKTESDDKIVLISNYTQTLDLIEKMCRYKHYSAVRLDGTMSINKRQKLVDRFNDPEGQEFIFLLSSKAGGCGINLIGANRLILMDPDWNPAADQQALARVWRDGQKKDCFIYRFISTGTIEEKIFQRQSMKMSLSSCVVDAKEDVERLFSSDNLRQLFQKNENTICETHETYHCKRCNAQGKQLKRAPAMLYGDATTWNHLNHDALEKTNDHLLKNEHHYNDISFAFQYISH
Turning to B1, the binding entry in test [1] is reported as “no binding”.

B2: Rad54 peptide, 44 amino acids, residues 101-144 of S. cerevisiae Rad54 (peptide)
peptide: TKRRKDALSAQRLAKDPTRLSHIQYTLRRSFTVPIKGYVQRHSL
B2: the binding entry in test [2] was “binds”.

B3: Hed1 peptide, 39 amino acids, residues 118-156 of S. cerevisiae Hed1 (peptide)
peptide: PRKKKSLKDLIYETNKTFYQVDSNKVKYKVGLSKKQLLP
With B3, the binding entry in test [2] is given as “binds”.

Source of the values: article doi:10.1101/2025.03.26.645561.
